Literature values as cited in publication PMC2819033 (Journal of medicinal chemistry, 2009).

System: MCF-7 (breast cancer) cells
Details: read-out: IC50 MCF-7; crystal violet; cited from earlier work

N.N.[Cl][Pt][Cl] [cisplatin]
IC50: 1380 ± 290 nM
